These results are taken from CN113861292A.

By UniProt entry, the sequences of proteins in these tests, tags left out. Where a name states a change or a piece, a line headed by the entry shows the natural chain unless it says otherwise. Chains listed by the source or under a name are the forms on record and can include a tag or linker.
cCD40-His(食蟹猴CD40) (食蟹猴 (cynomolgus monkey)) (G7PG38, form named): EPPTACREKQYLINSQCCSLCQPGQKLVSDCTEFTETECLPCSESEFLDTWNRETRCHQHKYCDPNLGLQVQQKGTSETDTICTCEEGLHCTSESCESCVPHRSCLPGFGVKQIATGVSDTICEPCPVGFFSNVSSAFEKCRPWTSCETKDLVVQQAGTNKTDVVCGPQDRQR

Results are given in words; binding and its absence hold for the method and conditions named. Some entries that bind do so weakly or less than the wild type.

This assay has as its target cCD40-His(食蟹猴CD40) (食蟹猴 (cynomolgus monkey)) (UniProt G7PG38). Nature of the assay: ELISA, 2 μg/ml cCD40-his coated, HRP second antibody.

B1: 抗体25 (antibody, human IgG1, kappa, V domains shown)
VH: EVQLVESGGGLVQPGGSLRLSCAASGFSFGTYAMSWVRQAPGKGLEWVSGIDSGTGNPFYADSVKGRFTISRDNSKNTLYLQMNSLRAEDTAVYYCARALYYTGFYRPLDYWGQGTLVTVSS
VL: DIQMTQSPSSLSASVGDRVTITCRASQGISSYLAWYQQKPGKAPKLLIYAASSLQSGVPSRFSGSGSGTDFTLTISSLQPEDFATYYCQQHYTTPPTFGQGTKVEIKR
Regarding B1, the binding result is recorded as “binds”.
